# About 210 (0.4%) of roughly 52,000 sequences were called active.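 The calls were made as follows: active = gene whose silencing raises cell survival under the drug, median off-target-corrected z-score across its silencing RNAs 2 or more; inactive = the rest.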 The list shows a part of the results.
# Assay: Resistance to Poly (ADP-Ribose) Polymerase inhibitor: Gene Identification via Genome-wide siRNA Screen
# Details: mouse BRCA2 R2336H ES cells, olaparib, CellTiter-Glo viability; hits give high values
# Method in brief: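 Genome-wide siRNA screen (3 siRNAs/gene, 20 nM) in mouse ES cells carrying hypomorphic BRCA2 R2336H; olaparib 500 nM added 48 h post-transfection, CellTiter-Glo viability 72 h later. Normalized to plate-median negative control; MAD z-scores, gene median, seed-adjusted.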
row,Sequence,z-score
1,GCUACAAGGAACAUUAAAGTT against Sacs,inactive: 0.758
2,GGAGGAGGAGCCAGAAAAGTT against Zswim2,inactive: -0.67
3,GGAAGCUACCUGGAUAUCUTT against Astn2,inactive: -1.84
4,CCCGAACCAAGGACAAGUATT against Cdx1,inactive: -0.826
5,CCACUGUCCCAAACAUGUUTT against Olfr847,inactive: 0.228
6,GCAGAAGGUACUACUAUCGTT against BC025872,inactive: 0.919
7,GCACGGUGGUUCUAAAAGATT against Skiip,inactive: -2.57
8,CCAAACUUACAAAUAUGCGTT against Sgpp1,active: 3.3
9,GGGCUGCUCAAAGUUUUUGTT against Myadm,inactive: -0.669
10,GGGAAGAAACAUCAGACUATT against Sf3a2,inactive: -2.83
11,CCAUCACGGAUAAUCAUCGTT against 4931417E11Rik,inactive: 0.214
12,GGAGAGGGUCUUAGUCAGATT against Wasf1,inactive: 0.651
13,GAUCCUCAUCACAUCCGUGTT against Olfr461,inactive: 0.773
14,GGAUUCGAUUCUUCCAAAATT against Peli2,inactive: -1.02
15,GGUUGUUAAGGACAAAGCATT against Cox5a,inactive: 0.0429
16,GGAACAGGCCGAGUUAGUATT against Olfr414,inactive: 0.235
17,GCAAUGGCUACGAAACACATT against Adam2,inactive: 2.21
18,GGUCAAAUCAUUAAGGACATT against Pdzk1,inactive: -1.68
19,GGUCUACCUAAAACUGGAGTT against Cbln4,inactive: 0.0159
20,CCAAAUUAGCAACAUGGAATT against Depdc6,inactive: 1.08
21,CCAAGUCAGUGCUGUAAAGTT against F830104G03Rik,inactive: -0.645
22,CCAAUUCCAACCAGGAUUUTT against Slc26a8,inactive: 1.38
23,CCUUUAAUAAAGGUCUAGGTT against D15Wsu75e,inactive: 0.991
24,GGAGUUGGCAACAAGUUCUTT against 1700017G21Rik,inactive: 0.643
25,CCUUCACUGAGUUCUAUACTT against Pes1,inactive: -2.9
26,GGAAAGAAAUUGUAAAUGGTT against C130076O07Rik,inactive: -0.955
27,CGAGGUGCUGAAAUCUUGGTT against Ddah1,inactive: 0.569

row,Sequence,z-score
1,GGCCUGAGUAUAAAGUUAGTT against Wbp2,inactive: -0.0416
2,GGGAUGAACUAUUGGCAGGTT against Lyzl1,inactive: 0.471
3,CCACCCUUCUUCUAUCGAATT against Ybx2,inactive: 0.464
4,CAGUGCUCAUCAAUAUUGATT against Olfr1163,inactive: 0.395
5,CGAGCUUUCUUCGUACACCTT against Dvl2,inactive: 0.518
6,GGACAAAAUAGAGUGGAUCTT against Ropn1l,inactive: 0.584
7,GGACAUUGUCAAUAUGCUCTT against Pygm,inactive: 0.197
8,GGUAAUCAAAGAAGUCAAGTT against Dnaja2,inactive: 0.442
9,GCGGGUUAAUUAUCAACUUTT against Agpat3,inactive: 0.109
10,GGUCAUGAGUCCACUGUUUTT against AW210570,inactive: 0.134
11,GCUGUUGAUUGGUCAACUATT against Lmnb1,inactive: 0.0579
12,GCCUUGAGACAAUGAGACATT against Ambn,inactive: 0.871
13,CCGUCAGGUCUGCAUUCAGTT against Olfr105,inactive: -0.235
14,GCUCAGAGACAAGCAACUGTT against Kcnk7,inactive: -1.37
15,GGCUGAUGUGUUGAAGAUUTT against Cetn3,inactive: -1.13
16,GGGCUAAUUUAAACACCUATT against Rdhs,inactive: 0.328
17,CCUUGUUGAGAUCAAAUUGTT against D130059P03Rik,inactive: -0.551
18,GGACCAGAGGAGAUUUCAATT against Ern2,inactive: -2.2
19,GGUAGUGGACCUGACCUAUTT against 1700064K09Rik,inactive: 0.138
20,UAGGACAGGGAAAAAACUATT against Olfr1065,inactive: 0.842
21,GGCCUACAUCAUUCACUCCTT against Olfr65,inactive: 1.08
22,GGUGCUGGAGUUCAUGUACTT against Zbtb17,inactive: 0.689
23,GGAAUUGUAUUACUUUGAGTT against Tm9sf1,inactive: 1.03
24,GGUAUUCAGGAAGUCACCATT against Krt2-4,inactive: -0.841
25,GGUGUUUCCCAUUAGAACCTT against Loh12cr1,inactive: -0.475
26,CGUGUCUGAAGGACUACAATT against 1700052K11Rik,inactive: -0.809
27,GGCUGUCCAUUUUCUUAUCTT against Stc2,inactive: 1.8

# 5 entries from above, with tabs:
row	Sequence	z-score
12	GCCUUGAGACAAUGAGACATT against Ambn	inactive: 0.871
13	CCGUCAGGUCUGCAUUCAGTT against Olfr105	inactive: -0.235
14	GCUCAGAGACAAGCAACUGTT against Kcnk7	inactive: -1.37
15	GGCUGAUGUGUUGAAGAUUTT against Cetn3	inactive: -1.13
16	GGGCUAAUUUAAACACCUATT against Rdhs	inactive: 0.328

# Later entries

row,Sequence,z-score
1,GCUAAGUACAGCAAGGACUTT against Abt1,inactive: -0.0174
2,GGAAACAAGACAUAAUAGGTT against Fbxo42,inactive: 0.295
3,CCUUGCUUCGCCUACUUCUTT against Rab3ip,inactive: -0.308
4,GGGAAUAAAGUGUUUGUUUTT against E130113K22Rik,inactive: 1.7
5,GGAAGAAGAUGGUUCCGAATT against D1Ertd161e,inactive: -1.91
6,GGAAACAUGAUCAUUUUGATT against Olfr1179,inactive: 0.446
7,CGGGAAAGCCAAUACCAUGTT against MGC51670,inactive: 0.672
8,GGUCCUGAUGAAGAACGUGTT against Polr3e,inactive: -0.39
9,GGAUUCUGAACACUUUUUCTT against Pot1,inactive: 1.25
10,GGUAUCUGUGUGACUUCACTT against Pgpep1,inactive: 1.8
11,GCCUACAAUCUGAAUGAAGTT against Ctla2a,inactive: 0.00451
12,GGAGAAUUAGAAUAUGCUATT against 1110049F12Rik,inactive: 1.08
13,GGCCUUUAAAACUCCUGAATT against Lzic,inactive: -2.6
14,GGACAUGAAGAUAGCAAUUTT against Olfr424,inactive: -0.206
15,GGGACCUUGGAUUGUGUUGTT against Pla2g10,inactive: 0.00663
16,GGUGUACCAGCAUAGCUGUTT against Hps5,inactive: 0.799
17,GGACUGGUCAGAGAUGGAUTT against A930025D01Rik,inactive: 1.16
18,GGUUAUUCUCAUUUCGGAUTT against Phospho1,inactive: 0.87
19,GGAUUUGAGAGAUUCAGUUTT against Siglec10,inactive: 0.639
20,GCACAACAAGACUUUUCUCTT against Epm2a,inactive: 0.573
21,GCUAAAUCCUUGACACCCATT against 4930430E16Rik,inactive: 2.92
22,GGUAGAAGAGAACUGGACATT against Oas1a,inactive: -2.37
23,GGACAAGUCCACAGUGUUUTT against Lss,inactive: -0.471
24,GCAGUCCUCCAUUAAGGUATT against Nr4a2,inactive: -0.444
25,GCAUGCGUGUCCAUCACAUTT against A730036I17Rik,inactive: -0.233
26,CCCUGUUAAGUCAACUAUGTT against Actl7a,inactive: 0.219
27,GGUUUGUCAACAAGUGUCATT against Dicer1,inactive: -0.082

row,Sequence,z-score
1,GCCACGUUCAAACAGUACCTT against Slc1a7,inactive: 0.853
2,GCUCCAGUGAUUAUUUAUATT against C030018L16Rik,inactive: 0.243
3,GGCUCCAAUAAAGUGCCUUTT against Elf3,inactive: -0.0607
4,GGAACAGAGAUAUGAAACATT against Olfr738,inactive: -0.46
5,GUCCCUGAACCUGUGGUAUTT against Emp3,inactive: 0.684
6,CCAAGUUUAACAUCCAGGGTT against Pfkm,inactive: 1.16
7,CGGCUAUGUCCGUCAUUGGTT against 2310003F16Rik,inactive: -1.57
8,GGGAUUGGCUACGACUUCATT against Cbs,inactive: -2.04
9,CCUAACUGCUAAAUGGUGUTT against Irf1,inactive: 0.613
10,CCAGUUCGAUGUGGUAAUATT against Siat9,inactive: 1.16
11,CCUUAUCUUGGUAUACAAUTT against Eif3s10,inactive: -1.33
12,GGUUUAAUGCGACAUAUUGTT against 1700108E19Rik,inactive: 0.579
13,GGAAAUUUGUGAAAGGACATT against Gata4,inactive: -0.734
14,GGAAAAAAGAAAUCAGGAUTT against Luc7l,inactive: -0.126
15,GCGCAGGAUACCCUAUCUATT against 4930542C12Rik,inactive: -1.05
16,GGACGUGAACCAGGAUGUUTT against Cblc,inactive: 1.44
17,GGGUGACUAUGAGAAGGAGTT against Lmx1b,inactive: -1.15
18,GGCUGGCAAUGUGAGCAGUTT against Gbx1,inactive: -0.22
19,GGAGAUAUUUUGCAUACAGTT against V1rc3,inactive: 0.46
20,GGAGGCAGCCAAAGAAAACTT against Bmp8a,inactive: -0.369
21,GGCAAAUAGUGACCACACGTT against Dmp1,inactive: -2.14
22,GGAACUCCUGACAAAGAUGTT against AW049829,inactive: -0.165
23,GGGACCAAGAAGGAUAACUTT against Flrt1,inactive: -0.951
24,GCUACGCAAUAAGACCACATT against Lamc3,inactive: -0.00194

# Pulled one by one from above (two):
row,Sequence,z-score
1,GCUAAGUACAGCAAGGACUTT against Abt1,inactive: -0.0174
26,CCCUGUUAAGUCAACUAUGTT against Actl7a,inactive: 0.219

# From PubChem BioAssay AID1347423 (Functional Genomics Laboratory (NCATS/FGL), 2020)
